# Screening data, single-dose tests

From ChEMBL document CHEMBL3988442, “University of Dundee, Small-Polar-MMV Screening Library” (2021).

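Phenotypic screen: M. tuberculosis growth, cholesterol and DPPC medium, 4 days; the read-out is not stated. Compounds at 50 µM. Higher reads as more growth inhibition (inferred: compounds with an IC50 in retests scored well above the rest). About 69,000 compounds were tested under these conditions; 0.54% (about 370) showed 50% or more at least once.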

Values are the deposited “Percent Effect”, in %. How 0% and 100% were set is not recorded. Most values in the screen are low, and negative values occur. The compounds are a random part of those screened. Two or more numbers in one place are separate tests of the same structure; such repeats can differ widely.

Compound	effect
N#Cc1ccc(CNCC2CCN(CCO)CC2)cc1	-15.04%
Cc1cc(C(=O)NC2(C#N)CCSCC2)n(C)n1	11.8%
CN(C)Cc1ccnc(C2CN(CCCc3ccccc3)CCO2)n1 (centres unmarked)	14.23%
CNc1cc(C(=O)NCCC2=CSC3=NCCCN23)ccn1	-6.426%
Cc1nn(C)c(C)c1C(=O)N1CCN(c2ccncc2Cl)CC1	-10.11%
CC(NC(=O)OC(C)(C)C)c1nnc(S(=O)(=O)Cc2ccccc2Cl)o1 (centres unmarked)	-8.246%
Cn1cc(CN2CCN(Cc3nccn3C)CC2)cn1	-48.1%
CCC1(CC)C(=O)NC(=O)N=C1Nc1ccc(C)cc1	-5.76%
O=C(O)C(F)(F)F.O=C(O)C(F)(F)F.[H][C@@]12CCCO[C@]1([H])[C@H](OCc1ccncc1)CN2Cc1ccoc1	11.9%
CN(C)c1cc(C(=O)N2CCCN(Cc3cscn3)CC2)ccn1	1.93%
CCOCCn1nc(C)cc1C(=O)N1C[C@@H](C)[C@](O)(C2CC2)C1	0.7095% and -25%
COc1cn(CC(=O)N2CCN(c3ccc(F)cc3)CC2)c(C)cc1=O	0.2278%
CNCc1ccc([C@@H]2CN(C(C)=O)C[C@H]2C(=O)N(C)C)cc1.Cl	-19.2% and -6.934%
N#Cc1cc(NS(=O)(=O)c2cc(C(=O)O)cc(Cl)c2Cl)ccc1F	-16.88%
Nc1nnnn1NCc1cccc2ccccc12	17.25%
Cc1ccnc(NC(=O)CCNC(=O)c2ccccc2Cl)c1	-14.87%
CC(=O)NCC1CCN(C(=O)c2csc(-c3ccc(C)cc3C)n2)CC1	-6.059%
COc1ccc(Cl)cc1NCCC(=O)NCCNc1cnccn1	3.3%
Cc1ccc(C(NCC(=O)N2CCNC(=O)C2)C(F)(F)F)cc1 (centres unmarked)	-24.13%
CCOc1ccc(CNC2CCCN(c3cccnn3)C2)cc1OC (centres unmarked)	12.47%
[H][C@@]12CS(=O)(=O)C[C@]1([H])N(Cc1nc3ccccc3[nH]1)CCN2CCC	-9.728% and -4.624%
Cc1ccc(C(=O)N2CCn3cc(CN(C)Cc4ccco4)nc3C2)o1.O=C(O)C(F)(F)F	-1.809%
O=C(NCCc1ccncc1)C1CCN(Cc2ccco2)CC1	-22.84%
Fc1cccc(C(NCc2ncc[nH]2)c2ccccn2)c1 (centres unmarked)	-23.23%
CN(C(=O)C1CCOCC1)[C@@H]1CCC[C@@H](N2CCCC2)[C@@H]1O	-6.51%
Cc1ccc(CN2CCC3(CC2)C(=O)N(CC(C)C)CCN3C)o1.O=C(O)C(F)(F)F.O=C(O)C(F)(F)F	6.93%
CCC(C)NC(=O)c1ccc(NC(=O)CCCn2cncn2)c(C)c1 (centres unmarked)	-12.17%
Cc1nsc(N2CCN(CC(=O)NCc3ccc(F)cc3)CC2)n1	-6.457% and 8.84%
Cc1ccc(C2(CN(C)Cc3c(C)nn(C)c3C)CCNCC2)nc1	-1.69%
Cc1nn(C)c(C)c1OCC(=O)NCc1cccc(CO)c1	0.06263%
CC(C)Oc1ncccc1CNC(=O)NC(C)c1cccs1 (centres unmarked)	11.25%
O=C(O)C(F)(F)F.O=C(c1ccco1)N1CCCC12CCN(c1ncccn1)CC2	9.179%
O=C(Nc1ccccc1F)C1CSCN1C(=O)CCc1ccco1 (centres unmarked)	-3.191%
[H][C@@]12CCC[C@@H](OCc3cccnc3)[C@]1([H])CN(Cc1cnn(C)c1)C2	-36.51%
CC(C)(C)C(=O)NCCC1CN(Cc2ccccc2F)CCO1 (centres unmarked)	-0.1561%
Cc1cc(NC(=O)CN2CCCC2c2noc(C3CC3)n2)on1 (centres unmarked)	-4.579% and 8.794%
Cc1ccc(-c2nnc(CCC(=O)NCc3cn(C)nc3C)o2)s1	9.213%
c1cncc(O[C@H]2COCCN(CC3CC3)C2)c1	-6.154%
COCC(=O)NCc1cccc(Br)c1	6.392%
COCCOc1ccc(NC(=O)N(CCO)C2CC2)cn1	-13.35%
CC1CN(C)c2ccccc2N(C(=O)c2ccc(=O)n(C)c2)C1 (centres unmarked)	-17.75%
Cc1cc(N2CCN(CC(=O)N(C)C)CC2)nc(-c2ccncc2)n1	15.38%
CN(C)S(=O)(=O)NCc1cccnc1Oc1ccccc1	0.08818%
NC(=O)N1CCCN(Cc2cc(F)cc(Br)c2)CC1	-7.236%
Cc1cc(Nc2ccc3c(c2)CC(=O)N3)nc(C2CC2)n1	5.629% and 7.331%
O=C(NCC1CC1)C1=NOC2(CCN(S(=O)(=O)c3cccs3)C2)C1 (centres unmarked)	-18.65%
O=C(Cc1ccc2c(c1)CCC2)NCCNc1cnccn1	-0.004876%
COc1cc(Cl)c(CN2CCC(C(N)=O)C2)cc1Cl (centres unmarked)	21.43%
O=C(O)C(F)(F)F.O=C(O)C(F)(F)F.[H][C@@]12CCN(Cc3cccc(C#N)c3)[C@@]1([H])CC(=O)N2Cc1ccncc1	-0.4078% and 12.44%
CN(C1CCN(c2ccccn2)CC1)S(=O)(=O)N1CCOCC1	1.458% and -4.983%
Cc1noc(Cl)c1CC(=O)N1CCCC(n2cccn2)C1 (centres unmarked)	-5.434%
Cl.O=C(CCc1cccc(C2CCNCC2)n1)N1CCCCC1	5.797%
O=C(Cn1c(=O)n(Cc2ccco2)c2ncccc21)NC1CC1	13.38%
NC(=O)C(CNC(=O)Cc1ccc(F)cc1)Cc1ccc(F)cc1 (centres unmarked)	-29.39%
Cc1cccc(CN2C(=O)CCC23CCN(Cc2nccn2C)CC3)n1	-8.252%
CNC(=O)CN1CCN(C(=O)Nc2ccc(Cl)cc2F)CC1	18.75% and 0.1213%
O=C(O)C(F)(F)F.[H][C@@]12CCCO[C@]1([H])[C@H](OCc1cccnc1)CN2S(=O)(=O)CC	-19.16%
Cc1nn(C2CCS(=O)(=O)C2)c(O)c1Cc1ccccc1 (centres unmarked)	24.6%
CCS(=O)(=O)N1CCc2c(cnc(-c3cccnc3)c2C(=O)O)C1	-3.892%
[H][C@@]12CN(C(N)=O)C[C@]1([H])CN(C(=O)c1ccco1)C2	-5.761%
O=C1OCCN1CCS(=O)(=O)c1cccc(Br)c1	-14.3%
COc1ccc(-c2ccc(C(=O)NS(C)(=O)=O)c(F)c2)c(F)c1	-20.36%
Cc1nc(C)n(C2CCCN(C(=O)c3c[nH]c(C(C)C)n3)C2)n1 (centres unmarked)	-25.6%
Cc1cnn(CC2CCCCN2Cc2nccn2CC(F)(F)F)c1 (centres unmarked)	-11%
COc1ccc(N(CCC(N)=O)C(=O)CSc2ccc(Cl)cc2)cc1	-3.189% and -10.7%
CN(C)CCN1CCCC12CCN(C(=O)c1ccoc1)CC2.O=C(O)C(F)(F)F.O=C(O)C(F)(F)F	-4.032% and 1.114%
COCCN1CCN(CC(O)c2ccc(OC(F)(F)F)cc2)CC1 (centres unmarked)	-8.976%
Cc1c(F)cccc1S(=O)(=O)NC(C)(C)CN.Cl	1.867%
c1cc(-c2cc(C3CCN(Cc4cncnc4)C3)ccn2)ccn1 (centres unmarked)	-28.11%
CC(C)CC(C#N)NC(=O)CCNC(=O)C(C)(C)C (centres unmarked)	8.419%
Cc1cnn(C2CCCN(C(=O)c3ccc(O)nc3)C2)c1 (centres unmarked)	-9.162%
CC(C)Cc1nc(CNCc2cccc(N3CCCC3=O)c2)no1	24.11%
[H][C@@]12CCCO[C@]1([H])[C@H](NC(=O)CC1CC1)CN(Cc1nccs1)C2	8.281%
CCOCCn1c(=O)[nH]c2cc(C(=O)N(C)Cc3cc(C)[nH]n3)ccc21	-6.111%
c1ccc(-c2nc(CNCCn3cccn3)cs2)cc1	14.05%
CCCNc1ncc(-c2cc(C3CC3)nc(N)c2C#N)cn1	-19.1% and 2.188%

Once more, the final 4:

Compound,effect
[H][C@@]12CCCO[C@]1([H])[C@H](NC(=O)CC1CC1)CN(Cc1nccs1)C2,8.281%
CCOCCn1c(=O)[nH]c2cc(C(=O)N(C)Cc3cc(C)[nH]n3)ccc21,-6.111%
c1ccc(-c2nc(CNCCn3cccn3)cs2)cc1,14.05%
CCCNc1ncc(-c2cc(C3CC3)nc(N)c2C#N)cn1,-19.1% and 2.188%